# Laboratory results reported in PubChem BioAssay AID493191 (Broad Institute, 2011).
# Screen size: about 1,300 compounds; about 330 (25%) were called active. How the calls were made is not given here. This is a selection; strong and weak results do not stand in their true shares. Entries with a potency or affinity are not part of this list.
# Assay: growth inhibition of MALME3 cells – cell-based, CellTiter-Glo, cherry-picked, orthogonal assay for MITF inhibitor project, dose response (AID 493191)
# Conditions: MALME3 melanoma viability, CellTiter-Glo luminescence, 24 h; at 35 µM (top of the series)
row,Compound,"activity change, negative = inhibition"
1,COc1ccc(C(=O)NC(=O)Nc2cc(C)ccn2)cc1,inactive: -25.7%
2,COc1cc(C(=O)N/N=C(\c2ccccc2)c2ccccn2)cc(OC)c1OC,inactive: -45.1%
3,Cc1cc2oc3ccc(NCCC4CCCN4C)cc3c(=O)c2cc1C (stereo not given),-92.6%
4,O=c1c2ccccc2cnn1CCOc1ccccc1,inactive: -21.9%
5,Cn1nnnc1Sc1ncnc2scc(-c3cccs3)c12,inactive: -17.8%
6,Cc1ccc(S(=O)(=O)CC(CN2CCCCC2)N2CCCCC2)cc1 (stereo not given),inactive: 6.97%
7,COc1cccc2sc(N(CCCN(C)C)C(=O)C(c3ccccc3)c3ccccc3)nc12,-94.5%
8,O=C(NC1CC1)C1CCN(S(=O)(=O)c2ccc(Cl)c([N+](=O)[O-])c2)CC1,inactive: -35.8%
9,COc1cccc(C(=O)Nc2ccc3c(cc2=O)[C@@H](NC(C)=O)CCc2cc(OC)c(OC)c(OC)c2-3)c1,inactive: -7.94%
10,Cc1ccccc1Cn1c(=N)n(CC(=O)c2ccc([N+](=O)[O-])cc2)c2ccccc21,inactive: -24.4%
11,COC(=O)c1c(NC(=O)c2nc3ccccc3s2)sc2c1CC(C)(C)NC2(C)C,inactive: -5.34%
12,CCCCC1C(=O)N(c2ccccc2)N(c2ccc(O)cc2)C1=O (stereo not given),inactive: -3.31%
13,COC(=O)C1=C(C)N(Cc2ccccc2)C(=NCCc2cccnc2)N[C@H]1c1ccc(Br)cc1,-95.5%
14,Cc1ccc(SCc2cn3cc(Cl)ccc3n2)cc1,inactive: -21.6%
15,O=C(NC1CCCCC1)C(c1cccnc1)N(C(=O)CCl)c1cccc(Cl)c1 (stereo not given),inactive: -10.9%
16,CC(=O)N(\C=C/C=C/C=C1\Sc2ccccc2C1=O)c1ccccc1,inactive: -36%
17,Cc1ccc2nc(-c3cccnc3)oc2c1,inactive: -3.42%
18,CCCCn1c(=O)[nH]c(=O)c2c1nc(Cn1ncc(Cl)c(Cl)c1=O)n2CCC,-84.6%
19,Cc1ccc(NC(=O)c2ccccc2)cc1,inactive: 5.52%
20,O=C(N/N=C/c1ccc([N+](=O)[O-])o1)c1sc2ccccc2c1Cl,inactive: -55.5%
21,O=C(Nc1ccc(Cl)c(S(=O)(=O)N2CCOCC2)c1)c1ccc(OCC2CCCO2)cc1 (stereo not given),inactive: -44.9%
22,CN(C)Cc1c(O)ccc2c1O/C(=C\C=C\c1ccccc1)C2=O,inactive: 7.22%
23,CC(=O)N(c1nnc(-c2cccc(C)c2)s1)C1CCCC1,inactive: 1.3%
24,C=C1C(=O)C=C[C@]2(C)C[C@@H]3OC(=O)[C@](C)(O)[C@H]3C[C@@H]12,inactive: -38.6%
25,O=C(O)c1cccc(NC(=O)c2cccc(NC(=O)C3CCCO3)c2)c1 (stereo not given),inactive: 2.35%
26,CCOc1ccc(-c2noc(CCC(=O)O)n2)cc1,inactive: 6.15%
27,CCOC(=O)N1CCC(NC(=O)C2CCCN(Cc3nc(-c4cccc(C)c4)oc3C)C2)CC1 (stereo not given),inactive: -2.51%
28,COC(=O)C1=C(C)N(Cc2ccccc2)C(=NCc2ccccc2)N[C@H]1c1ccccc1,-93.9%
29,OCc1ccc(N=Nc2ccccc2)cc1,inactive: 4.1%
30,O=[N+]([O-])c1ccc(-n2nnnc2-c2ccccc2)c([N+](=O)[O-])c1,-93%

# Three entries out of the list, arranged by heavy-atom count, high to low.
row,Compound,"activity change, negative = inhibition"
9,COc1cccc(C(=O)Nc2ccc3c(cc2=O)[C@@H](NC(C)=O)CCc2cc(OC)c(OC)c(OC)c2-3)c1,inactive: -7.94%
18,CCCCn1c(=O)[nH]c(=O)c2c1nc(Cn1ncc(Cl)c(Cl)c1=O)n2CCC,-84.6%
4,O=c1c2ccccc2cnn1CCOc1ccccc1,inactive: -21.9%
